Results published in doi:10.1101/2025.03.25.645379.
No constants are given. Whether binding was seen depends on the method and setting. Binding seen in cells or lysates may run through a third protein. Binding can be weak; no strength is given.

Legend:
Experiment in all cases: split reporter
[1] = target: metal binding domain (MBD) of CtpC (split-GFP fusion) (M. tuberculosis H37Rv) (UniProt P9WPT5)
[2] = target: metal binding domain (MBD) of CtpV (split-GFP fusion) (M. tuberculosis H37Rv) (UniProt P9WPS2)
[3] = target: predicted metal binding domain (MBD) of CtpG (split-GFP fusion) (M. tuberculosis H37Rv) (UniProt P9WPS7)
[4] = target: PacL2 (split-GFP fusion) (M. tuberculosis H37Rv) (UniProt P9WLP5)

Measured: binding

PacL2 (split-GFP fusion) (from UniProt P9WLP5)
binds: [1] | [2] | [3]

PacL1 (split-GFP fusion) (from UniProt P96874)
binds: all assays above
